Assay results taken from patent US20240325529A1, “MEDICAMENT FOR TREATMENT AND/OR PREVENTION OF CANCER” (TORAY INDUSTRIES, INC., priority 2021, published 2024).
No constants are given. Whether binding was seen depends on the method and setting. Some binding calls cover weakened binding; strength is not graded here.

Molecular target: T1, human CAPRIN-1 protein on cell membrane surfaces of human cancer cells (human) (UniProt Q14444)
T1 sequence (looked up): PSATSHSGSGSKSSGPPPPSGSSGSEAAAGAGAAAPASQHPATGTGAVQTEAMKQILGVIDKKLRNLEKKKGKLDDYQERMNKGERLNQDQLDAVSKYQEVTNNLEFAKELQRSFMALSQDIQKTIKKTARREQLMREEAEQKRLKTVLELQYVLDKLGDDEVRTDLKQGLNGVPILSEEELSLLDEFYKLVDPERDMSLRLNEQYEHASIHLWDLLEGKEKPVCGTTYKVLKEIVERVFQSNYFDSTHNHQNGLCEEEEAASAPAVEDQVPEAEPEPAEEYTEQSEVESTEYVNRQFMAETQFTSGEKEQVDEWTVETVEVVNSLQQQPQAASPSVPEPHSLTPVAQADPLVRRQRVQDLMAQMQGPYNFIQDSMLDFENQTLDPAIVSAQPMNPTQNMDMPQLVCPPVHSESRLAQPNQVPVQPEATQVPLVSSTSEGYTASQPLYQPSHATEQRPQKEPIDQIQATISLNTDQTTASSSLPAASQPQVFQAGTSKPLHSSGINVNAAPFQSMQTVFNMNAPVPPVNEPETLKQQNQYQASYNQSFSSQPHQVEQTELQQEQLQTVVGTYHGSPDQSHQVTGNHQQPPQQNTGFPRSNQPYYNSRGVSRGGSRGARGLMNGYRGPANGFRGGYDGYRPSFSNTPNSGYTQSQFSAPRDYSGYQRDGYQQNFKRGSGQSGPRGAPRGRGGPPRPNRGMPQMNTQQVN
Test: flow cytometry on cancer cells expressing CAPRIN-1

binding: binds
B1: anti-CAPRIN-1 antibody (z) (antibody, V domains shown)
VH: GPDLVKPGASVKISCKASGYSFTAYYMHWVKQSHGKSLEWIGRVNPNNGGTTYNQKFKGKAILTVDKSSSTAYMELRSLTFEDSAVYYCARRIYYGYFDYWGQGTTVTVSS
VL: AFFAVSLGQRATISCKASQSVDYDGDSYMNWYQQKPGQPPKLLIYVASNLESGVPARFSGSGSGTDFTLNIHPVEEEDAATYYCQQSNEDPYTFGGGTKLEIKQ
